Data as given in PubChem BioAssay AID1259405 (NCATS, 2018)

Screen: 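Silenced genes that increase secreted GFP made by CHO cells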 (primary screen)
System: Chinese hamster CHO-K1 ovary cells with stable secreted eGFP expression
Reagents: single siRNA against mouse genes, 0.8 pmol siRNA per well (2 µl of 400 nM stock)
Time to read-out: 3 days
Read-out: 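Percent of the per-plate non-targeting control median for intracellular GFP per well by laser scanning cytometry and for cell viability by ATP luminescence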
Reading the numbers: GFP, % of control: higher = more GFP per well, higher productivity
Hit rule: 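Called active when intracellular GFP, relative to negative control, is at or above 120%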
This is a random part of about 50,000 reagents tested. In the full data, about 4,000 (8%) got an active call. 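Mouse siRNA library applied to hamster cells; one well for each siRNA.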 The numbers tell different reagents against one gene apart. Further read-outs or replicates are left out here.

GFP, % of control, by target gene and reagent
Serpinb12: #1 122 active; #2 108 inactive; #3 105 inactive
Map2k2: #1 96.4 inactive
Atf7ip: #1 140 active; #2 72.5 inactive; #3 49.9 inactive
Nr1i3: #1 34.3 inactive; #2 143 active
Slc36a1: #1 96.8 inactive; #2 55.9 inactive; #3 68.5 inactive
Tpm2: #1 57.4 inactive; #2 40.8 inactive; #3 75.2 inactive
Krtap9-1: #1 54 inactive; #2 61.1 inactive; #3 88.1 inactive
Wdr20rt: #1 39.5 inactive; #2 85.3 inactive; #3 74.1 inactive
Erbb3: #1 143 active; #2 69.2 inactive; #3 13.6 inactive
Csnk2a1: #1 62.6 inactive
AI854703: #1 68 inactive; #2 71.4 inactive; #3 49.1 inactive
Prss32: #1 118 inactive; #2 30.6 inactive; #3 55.8 inactive
4930556L07Rik: #1 85.2 inactive; #2 95 inactive; #3 58.6 inactive
Acot11: #1 29.6 inactive; #2 96.5 inactive; #3 77.3 inactive

A portion of the results above, as a working copy:
GFP, % of control, by target gene and reagent
Serpinb12: #1 122 active; #2 108 inactive; #3 105 inactive
Map2k2: #1 96.4 inactive
Atf7ip: #1 140 active; #2 72.5 inactive; #3 49.9 inactive
Nr1i3: #1 34.3 inactive; #2 143 active
Slc36a1: #1 96.8 inactive; #2 55.9 inactive; #3 68.5 inactive

Next entries follow:
GFP, % of control, by target gene and reagent
T2: #1 115 inactive; #2 96.9 inactive; #3 115 inactive
Ddx55: #1 68.4 inactive; #2 72.2 inactive; #3 127 active
Grhpr: #1 94.3 inactive; #2 108 inactive; #3 40.6 inactive
Plcd4: #1 68.9 inactive; #2 121 active; #3 42.4 inactive
Scyl1: #1 104 inactive; #2 112 inactive
Iqcf4: #1 65.6 inactive; #2 74.5 inactive; #3 56.9 inactive
Ssrp1: #1 74.3 inactive; #2 114 inactive
Plekha8: #1 101 inactive; #2 116 inactive; #3 45.7 inactive
Sbno1: #1 88.7 inactive; #2 71.5 inactive; #3 71.2 inactive
Or5p1: #1 127 active; #2 110 inactive; #3 63.6 inactive
Polr2h: #1 67.6 inactive; #2 90 inactive; #3 61.1 inactive
Rptor: #1 103 inactive; #2 106 inactive; #3 83.7 inactive
Selenof: #1 50.8 inactive; #2 41.6 inactive; #3 61.9 inactive
Cemip: #1 95 inactive; #2 44.3 inactive; #3 37.9 inactive
Bglap3: #1 101 inactive; #2 92.1 inactive
Rdm1: #1 92.6 inactive; #2 69.9 inactive; #3 41.1 inactive
Yipf3: #1 54.3 inactive; #2 107 inactive; #3 61.4 inactive
Jsrp1: #1 35.7 inactive; #2 71.8 inactive; #3 81.5 inactive
Ddx25: #1 103 inactive; #2 74.7 inactive; #3 79.8 inactive
Ctsq: #1 116 inactive; #2 70.3 inactive; #3 69.4 inactive
Tyrp1: #1 83.8 inactive; #2 96.4 inactive; #3 70.7 inactive
Htatsf1: #1 65.4 inactive; #2 46.3 inactive; #3 46.2 inactive
Slc26a9: #1 66.1 inactive; #2 128 active; #3 104 inactive
Or8k25: #1 70.2 inactive; #2 67.9 inactive; #3 61.9 inactive
Rbks: #1 58.8 inactive
